In the supplement of paper PMC8326762, “A Small Molecule Inhibitor of Pex3–Pex19 Interaction Disrupts Glycosome Biogenesis and Causes Lethality in Trypanosoma brucei” (Frontiers in Cell and Developmental Biology, 2021):
Structures can show the parent of a compound that is named as a salt. The list shows a part of the results. This is a noisy data set.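 Optical density at 600 nm measured yeast growth. Because the two-hybrid strains grew without histidine, growth required Pex3–Pex19 binding. Trypanosome selectivity meant a compound inhibited the trypanosome-pair strain's growth by more than 65% but the human-pair strain's by less than 65%.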

What was measured:
[1] = tested on: Saccharomyces cerevisiae HF7c pdr5Δ; experiment: general growth inhibition of yeast HF7c pdr5Δ in -Leu -Trp medium, relative to DMSO; higher = stronger general growth inhibition; settings: 100 µM; 24 h
[2] = tested on: human PEX3-PEX19 interaction (yeast two-hybrid); experiment: growth inhibition of yeast two-hybrid strain reporting HsPex3-HsPex19 interaction, relative to DMSO; higher = stronger inhibition of human Pex3-Pex19 interaction / growth; settings: 100 µM; 24 h; 3-aminotriazole 10 mM
[3] = tested on: T. brucei Pex3-Pex19 interaction (yeast two-hybrid); experiment: growth inhibition of yeast two-hybrid strain reporting TbPex3-TbPex19 interaction, relative to DMSO; higher = stronger inhibition of T. brucei Pex3-Pex19 interaction / growth; settings: 100 µM; 24 h

SMILES | general growth inhibition [1] [%] | growth inhibition [2] [%] | growth inhibition [3] [%]
NC12CC3CC(CC(C3)C1)C2 [Amantadine hydrochloride] | 16.5 | 5 | 33.9
O=C(Nc1cccc(C(=O)Nc2ccc(S(=O)(=O)O)c3cc(S(=O)(=O)O)cc(S(=O)(=O)O)c23)c1)Nc1cccc(C(=O)Nc2ccc(S(=O)(=O)O)c3cc(S(=O)(=O)O)cc(S(=O)(=O)O)c23)c1 | 35 | 35.6 | 55
CCOc1ncc(S(=O)(=O)N2CCN(CC)CC2)cc1-c1nc(=O)c2nn(CCOC)c(CC)c2[nH]1 [Gisadenafil besylate salt] | 8.13 | 5.8 | 23.7
NC(=O)OCC(COC(N)=O)c1ccccc1 [Felbamate] | 38.9 | 40 | 60.2
CN1CC(O)C(O)C(O)C1CO (configuration not stated) [N-Methyl-1-deoxynojirimycin] | 35.8 | 50 | 66.6
N=C(N)c1ccc(OCCCCCOc2ccc(C(=N)N)cc2)cc1 [Pentamidine isethionate] | 50.5 | 47.4 | 67.4
CC(C)(C=O)Cc1cc(C(C)(C)C)c(O)c(C(C)(C)C)c1 | 59.8 | 38 | 50.5
CO[C@H]1C[C@@H]2CC[C@@H](C)[C@@](O)(O2)C(=O)C(=O)N2CCCC[C@H]2C(=O)O[C@H]([C@H](C)C[C@@H]2CC[C@@H](OC(=O)C(C)(CO)CO)[C@H](OC)C2)CC(=O)[C@H](C)/C=C(\C)[C@@H](O)[C@@H](OC)C(=O)[C@H](C)C[C@H](C)/C=C/C=C/C=C/1C [Temsirolimus] | 73.1 | 61.7 | 61.4
FC(F)(F)c1ccccc1-n1ccnc1 [1-[2-(Trifluoromethyl)phenyl]imidazole] | 14.1 | 12.3 | 37.3
O=C(O)CP(=O)(O)O [Phosphonoacetic acid] | 43.9 | 40.1 | 62.9
CC(N)(C(=O)O)c1ccc(C(=O)O)cc1 (racemic) [(±)-alpha-Methyl-4-carboxyphenylglycine] | 29.6 | 17.4 | 73.9
CNCCC=C1c2ccccc2CCc2ccccc21 [Nortriptyline hydrochloride] | 38 | 44.2 | 59.2
NC/C=C/C(=O)O [(E)-4-amino-2-butenoic acid] | 53.8 | 49.7 | 58.1
O=NN(CCCl)C(=O)NCCCl [Carmustine] | 50.6 | 40.7 | 69.5
COc1cc(NS(C)(=O)=O)ccc1Nc1c2ccccc2nc2ccccc12 [Amsacrine hydrochloride] | 32.3 | 21.8 | 51.4
O=C(Nc1cc(C(F)(F)F)cc(C(F)(F)F)c1)Nc1c(Br)cc(Br)cc1-c1nn[nH]n1 | 17.4 | 10.2 | 36.1
OCCN1CCN(CCCN2c3ccccc3C=Cc3ccccc32)CC1 [Opipramol dihydrochloride] | 52.1 | 43.2 | 66.2
CC[n+]1c(/C=C/C=C2/N(C)c3ccccc3C2(C)C)sc2ccccc21 | 84 | 81.2 | 74.6
c1ccc2c(c1)CC(N1CCN(c3cccc4c3OCCO4)CC1)C2 | 6.32 | 3.49 | 29.9
CN(C)CCC(c1ccccc1)c1ccccn1 (configuration not stated) [Pheniramine maleate] | 42.2 | 35.8 | 61.6
O=C1c2ccccc2C(=O)c2c(NCCc3ccc(O)cc3)ccc(NCCc3ccc(O)cc3)c21 | -8.24 | -21.3 | -1.08
CCSC(=N)N [S-Ethylisothiourea hydrobromide] | 18.4 | 39.6 | 53.5

SMILES | general growth inhibition [1] [%] | growth inhibition [2] [%] | growth inhibition [3] [%]
S=C(S)OC1CC2CC1C1CCCC21 [D-609 potassium] | 88.4 | 78.3 | 78.2
CCCCCCCC/C=C\CCCCCCCC(=O)NCCc1ccc(O)c(O)c1 [N-Oleoyldopamine] | 37.6 | 24.1 | 54
CC(=O)c1ccc(S(=O)(=O)NC(=O)NC2CCCCC2)cc1 [Acetohexamide] | 13.7 | 9.05 | 27.8
CN[C@H]1CC[C@@H](c2ccc(Cl)c(Cl)c2)c2ccccc21 [Sertraline hydrochloride] | 38.5 | 33.4 | 58.4
CN1C2CCCC1CC(NC(=O)c1nn(C)c3ccccc13)C2 (configuration not stated) [Granisetron hydrochloride] | 52.4 | 46.2 | 63.5
CCn1cc(C(=O)O)c(=O)c2ccc(C)nc21 [Nalidixic acid sodium] | 73.9 | 63.3 | 78.5
COc1ccccc1OCC(O)CN1CCN(CC(=O)Nc2c(C)cccc2C)CC1 (configuration not stated) [Ranolazine dihydrochloride] | 45.4 | 45.5 | 63.5
COC1=C(OC)C(=O)c2ccccc2C1=O [2,3-Dimethoxy-1,4-naphthoquinone] | 43.3 | 69.5 | 82.5
CC(C)C(=O)Nc1ccc([N+](=O)[O-])c(C(F)(F)F)c1 [Flutamide] | 4.94 | -8.02 | 5.09
O=c1n(CCCN2CCN(c3cccc(Cl)c3)CC2)nc2ccccn12 [Trazodone hydrochloride] | 26.2 | 44.6 | 60
COC(=O)[C@H]1[C@H]2C[C@@H]3c4[nH]c5cc(OC)ccc5c4CCN3C[C@H]2C[C@@H](OC(=O)c2cc(OC)c(OC)c(OC)c2)[C@@H]1OC [Reserpine] | 11.7 | 7.31 | 45
C[C@H](c1ccc(F)cc1CCCC(=O)O)N(c1cc(F)ccc1F)S(=O)(=O)c1ccc(Cl)cc1 | 57.1 | 24.5 | 56.3
CNc1cc(NS(=O)(=O)c2ccc(N)cc2)nc(NC)n1 [Ro 04-6790 dihydrochloride] | 20.1 | 14.4 | 48
Nc1ccc2c3c(cccc13)C(=O)NC2=O [4-Amino-1,8-naphthalimide] | 32.9 | 30.4 | 35.2
C[N+](C)(C)CCO.[Br-] [Choline bromide] | 39.3 | 43.8 | 63.1
O=C(O)c1cc2cc(Cc3cccnc3)ccc2o1 [Furegrelate sodium] | 37.6 | 42.3 | 57
CN(C)CCC(c1ccc(Br)cc1)c1ccccn1 (racemic) [(±)-Brompheniramine maleate] | 26.2 | 30.8 | 52.8
Nc1ncnc2c1ncn2C1CCCC1 [9-cyclopentyladenine] | 42.6 | 52.4 | 67.1
CC[C@]1(O)C[C@H]2CN(CCc3c([nH]c4ccccc34)[C@@](C(=O)OC)(c3cc4c(cc3OC)N(C=O)[C@H]3[C@@](O)(C(=O)OC)[C@H](OC(C)=O)[C@]5(CC)C=CCN6CC[C@]43[C@@H]65)C2)C1 [Vincristine sulfate] | 43.9 | 41.9 | 53.6
COc1cc(SC)ccc1C(=O)N1CCC(Cc2ccccc2)CC1 | 41.8 | 21.8 | 30.6
O=c1oc(Cl)c(Cl)c2ccccc12 [3,4-Dichloroisocoumarin] | 87.1 | 88.2 | 85.2
C#CCN(C)Cc1ccccc1 [Pargyline hydrochloride] | 49.9 | 41.5 | 64.6

SMILES | general growth inhibition [1] [%] | growth inhibition [2] [%] | growth inhibition [3] [%]
CCOC(=O)Nc1ccc(NCc2ccc(F)cc2)nc1N [Flupirtine maleate] | 23.7 | 31.4 | 50.5
CCn1ccnc1CC1COc2ccccc2O1 (configuration not stated) [Imiloxan hydrochloride] | 35.9 | 53.1 | 67
NC1CCN(O)C1=O (racemic) | 41.1 | 36.1 | 63.6
CC(C)NCC(O)COc1ccc(COCCOC(C)C)cc1 (configuration not stated) [Bisoprolol hemifumarate salt] | 6.54 | 5 | 34
CC[N+](CC)(CC)CCOc1cccc(OCC[N+](CC)(CC)CC)c1OCC[N+](CC)(CC)CC [Gallamine triethiodide] | 18 | 36.9 | 60.7
N=C(N)SCCc1c[nH]cn1 [Imetit dihydrobromide] | 16.7 | 4.21 | 35.7
O=c1ccn([C@@H]2O[C@H](COP(=O)(O)OP(=O)(O)O)[C@@H](O)[C@H]2O)c(=O)[nH]1 [Uridine 5'-diphosphate sodium] | 47.5 | 36.7 | 62.3
COc1cccc(OC)c1-c1cc(C(=O)NC2(C(=O)O)C3CC4CC(C3)CC2C4)nn1-c1ccc(C(=O)N(C)CCCN(C)C)cc1C(C)C (configuration not stated) | 27.1 | 9.05 | 27.7
c1cnc2c(c1)ccc1cccnc12 [1,10-Phenanthroline monohydrate] | 89.9 | 82.9 | 83.2
CCN(CC)CCNC(=O)c1ccc(NC(C)=O)cc1 [N-Acetylprocainamide hydrochloride] | 14.7 | 14.5 | 32.2
Cn1cnc2c(NCc3ccccc3)nc(NCCO)nc21 [Olomoucine] | 27.3 | 11 | 58.8
CCn1c(=O)[nH]c2cc(Cl)c(Cl)cc21 | 35.9 | 40 | 37.5
CN1CCN(C2=Nc3ccccc3Oc3ccc(Cl)cc32)CC1 [Loxapine succinate] | 28.1 | 30.7 | 56
COc1ccc(/C=C2\COc3ccc(C)cc3C2=O)cc1O | 32 | 30.2 | 28.2
CCN(Cc1ccncc1)C(=O)C(CO)c1ccccc1 (configuration not stated) [Tropicamide] | 39 | 47.2 | 58
Cc1cn[nH]c1 [4-Methylpyrazole hydrochloride] | 19 | 7.94 | 37.9
C[C@H](CS)C(=O)N1CCC[C@H]1C(=O)O [Captopril] | 32.3 | 35.5 | 45.4
COc1ccc(S(=O)(=O)Nc2nc(-c3cccc([N+](=O)[O-])c3)cs2)cc1OC | 39.1 | 27.1 | 57.5
CCCCCCCC/C=C\CCCCCCCC(=O)O [Oleic Acid] | 25.2 | 25.9 | 48.7
C[C@]12CC[C@@H]3c4ccc(O)cc4CC[C@H]3[C@@H]1CC[C@@H]2O [beta-Estradiol] | 19.1 | 32.1 | 42.5

Random excerpt: three compounds from above, in no set order.
SMILES | general growth inhibition [1] [%] | growth inhibition [2] [%] | growth inhibition [3] [%]
CC(N)(C(=O)O)c1ccc(C(=O)O)cc1 (racemic) [(±)-alpha-Methyl-4-carboxyphenylglycine] | 29.6 | 17.4 | 73.9
COC(=O)[C@H]1[C@H]2C[C@@H]3c4[nH]c5cc(OC)ccc5c4CCN3C[C@H]2C[C@@H](OC(=O)c2cc(OC)c(OC)c(OC)c2)[C@@H]1OC [Reserpine] | 11.7 | 7.31 | 45
OCCN1CCN(CCCN2c3ccccc3C=Cc3ccccc32)CC1 [Opipramol dihydrochloride] | 52.1 | 43.2 | 66.2
